Among the data in the supplement of paper PMC10849652 are log2 fold change values, retold here.

Sequences of proteins named here, by UniProt entry; tags and fusion partners are left off. A change or cut given only in a name is not applied to a line headed by its entry.
UniProt Q9NRG9: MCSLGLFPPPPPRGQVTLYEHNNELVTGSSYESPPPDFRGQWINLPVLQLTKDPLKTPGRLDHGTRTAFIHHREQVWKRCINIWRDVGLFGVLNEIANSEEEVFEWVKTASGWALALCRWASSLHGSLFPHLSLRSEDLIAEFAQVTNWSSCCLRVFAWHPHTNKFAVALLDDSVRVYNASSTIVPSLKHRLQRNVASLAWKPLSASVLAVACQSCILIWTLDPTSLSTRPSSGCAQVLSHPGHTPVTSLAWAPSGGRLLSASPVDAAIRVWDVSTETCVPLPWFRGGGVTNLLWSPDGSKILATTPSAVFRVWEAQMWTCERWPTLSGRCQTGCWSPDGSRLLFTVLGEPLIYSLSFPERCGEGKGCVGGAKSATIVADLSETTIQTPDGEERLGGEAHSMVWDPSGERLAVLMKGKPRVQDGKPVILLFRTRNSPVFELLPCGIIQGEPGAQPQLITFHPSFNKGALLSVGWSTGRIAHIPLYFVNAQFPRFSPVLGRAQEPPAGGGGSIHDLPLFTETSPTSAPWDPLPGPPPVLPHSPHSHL
UniProt P61163, whole entry, looked up: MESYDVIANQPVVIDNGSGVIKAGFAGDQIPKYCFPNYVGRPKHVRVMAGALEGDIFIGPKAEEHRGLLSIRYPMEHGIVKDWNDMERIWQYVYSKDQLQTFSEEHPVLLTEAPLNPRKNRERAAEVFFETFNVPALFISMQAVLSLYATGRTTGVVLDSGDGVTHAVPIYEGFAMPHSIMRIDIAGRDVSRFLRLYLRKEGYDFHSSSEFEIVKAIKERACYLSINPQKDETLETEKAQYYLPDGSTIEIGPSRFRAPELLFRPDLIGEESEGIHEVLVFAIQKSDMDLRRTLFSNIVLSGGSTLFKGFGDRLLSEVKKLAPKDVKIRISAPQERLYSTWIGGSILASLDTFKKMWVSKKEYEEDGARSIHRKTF
UniProt O00154: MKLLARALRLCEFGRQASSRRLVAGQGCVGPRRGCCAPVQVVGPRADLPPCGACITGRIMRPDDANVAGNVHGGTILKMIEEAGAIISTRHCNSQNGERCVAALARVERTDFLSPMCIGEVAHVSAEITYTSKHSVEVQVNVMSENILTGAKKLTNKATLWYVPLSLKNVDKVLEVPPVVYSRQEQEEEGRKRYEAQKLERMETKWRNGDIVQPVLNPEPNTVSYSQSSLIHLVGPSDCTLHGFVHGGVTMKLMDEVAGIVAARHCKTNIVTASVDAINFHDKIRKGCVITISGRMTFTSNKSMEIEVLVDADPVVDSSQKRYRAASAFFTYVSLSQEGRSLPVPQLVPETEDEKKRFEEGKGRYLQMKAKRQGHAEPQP
UniProt Q5VST6: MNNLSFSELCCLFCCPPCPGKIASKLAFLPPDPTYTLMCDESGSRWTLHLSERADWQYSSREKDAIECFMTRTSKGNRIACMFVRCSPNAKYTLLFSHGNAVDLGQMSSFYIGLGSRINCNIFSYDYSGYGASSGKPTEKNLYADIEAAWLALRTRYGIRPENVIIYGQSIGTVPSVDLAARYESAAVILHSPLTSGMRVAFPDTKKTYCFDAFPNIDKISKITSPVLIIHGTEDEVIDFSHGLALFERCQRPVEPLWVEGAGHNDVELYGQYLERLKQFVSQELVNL
UniProt Q96EY9: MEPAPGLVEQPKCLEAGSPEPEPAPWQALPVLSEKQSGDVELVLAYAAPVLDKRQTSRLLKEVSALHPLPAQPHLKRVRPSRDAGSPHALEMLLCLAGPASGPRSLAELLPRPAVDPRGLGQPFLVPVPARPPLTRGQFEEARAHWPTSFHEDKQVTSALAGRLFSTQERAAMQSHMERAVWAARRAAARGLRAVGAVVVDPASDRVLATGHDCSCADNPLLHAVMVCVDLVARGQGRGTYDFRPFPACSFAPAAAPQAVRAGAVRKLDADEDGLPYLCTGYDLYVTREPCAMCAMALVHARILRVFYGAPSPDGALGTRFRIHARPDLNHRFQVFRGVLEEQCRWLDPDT
UniProt Q9H568: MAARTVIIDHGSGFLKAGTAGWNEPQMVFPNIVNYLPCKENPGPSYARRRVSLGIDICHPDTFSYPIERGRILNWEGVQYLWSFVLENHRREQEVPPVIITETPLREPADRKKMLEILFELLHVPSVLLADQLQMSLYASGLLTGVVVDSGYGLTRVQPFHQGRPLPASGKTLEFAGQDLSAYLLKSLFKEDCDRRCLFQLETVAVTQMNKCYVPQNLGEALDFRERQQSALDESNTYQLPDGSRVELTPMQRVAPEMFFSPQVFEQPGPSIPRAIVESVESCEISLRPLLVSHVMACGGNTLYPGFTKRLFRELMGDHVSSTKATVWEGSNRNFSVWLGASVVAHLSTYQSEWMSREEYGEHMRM
UniProt Q9GZN1, whole entry, looked up: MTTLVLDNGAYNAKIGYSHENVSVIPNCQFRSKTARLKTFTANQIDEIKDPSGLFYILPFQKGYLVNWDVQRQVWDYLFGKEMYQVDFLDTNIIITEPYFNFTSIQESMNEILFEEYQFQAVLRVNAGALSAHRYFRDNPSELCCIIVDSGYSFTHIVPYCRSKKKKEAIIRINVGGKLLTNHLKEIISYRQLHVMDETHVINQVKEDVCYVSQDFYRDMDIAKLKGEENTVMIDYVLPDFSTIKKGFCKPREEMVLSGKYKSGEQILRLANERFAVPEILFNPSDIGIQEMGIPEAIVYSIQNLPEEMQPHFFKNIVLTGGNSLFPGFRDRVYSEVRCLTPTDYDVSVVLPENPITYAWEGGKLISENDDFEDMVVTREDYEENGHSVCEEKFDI
UniProt P16219: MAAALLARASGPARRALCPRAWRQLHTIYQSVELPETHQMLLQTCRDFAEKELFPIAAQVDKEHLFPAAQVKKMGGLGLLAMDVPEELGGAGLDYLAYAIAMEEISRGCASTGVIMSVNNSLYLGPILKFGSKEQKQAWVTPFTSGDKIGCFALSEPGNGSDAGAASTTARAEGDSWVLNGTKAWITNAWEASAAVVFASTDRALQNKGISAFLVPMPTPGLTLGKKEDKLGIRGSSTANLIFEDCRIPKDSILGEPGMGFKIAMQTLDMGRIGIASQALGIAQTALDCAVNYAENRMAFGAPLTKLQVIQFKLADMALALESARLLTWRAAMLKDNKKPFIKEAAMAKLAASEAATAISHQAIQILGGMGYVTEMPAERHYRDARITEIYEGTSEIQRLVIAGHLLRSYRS
UniProt O75027: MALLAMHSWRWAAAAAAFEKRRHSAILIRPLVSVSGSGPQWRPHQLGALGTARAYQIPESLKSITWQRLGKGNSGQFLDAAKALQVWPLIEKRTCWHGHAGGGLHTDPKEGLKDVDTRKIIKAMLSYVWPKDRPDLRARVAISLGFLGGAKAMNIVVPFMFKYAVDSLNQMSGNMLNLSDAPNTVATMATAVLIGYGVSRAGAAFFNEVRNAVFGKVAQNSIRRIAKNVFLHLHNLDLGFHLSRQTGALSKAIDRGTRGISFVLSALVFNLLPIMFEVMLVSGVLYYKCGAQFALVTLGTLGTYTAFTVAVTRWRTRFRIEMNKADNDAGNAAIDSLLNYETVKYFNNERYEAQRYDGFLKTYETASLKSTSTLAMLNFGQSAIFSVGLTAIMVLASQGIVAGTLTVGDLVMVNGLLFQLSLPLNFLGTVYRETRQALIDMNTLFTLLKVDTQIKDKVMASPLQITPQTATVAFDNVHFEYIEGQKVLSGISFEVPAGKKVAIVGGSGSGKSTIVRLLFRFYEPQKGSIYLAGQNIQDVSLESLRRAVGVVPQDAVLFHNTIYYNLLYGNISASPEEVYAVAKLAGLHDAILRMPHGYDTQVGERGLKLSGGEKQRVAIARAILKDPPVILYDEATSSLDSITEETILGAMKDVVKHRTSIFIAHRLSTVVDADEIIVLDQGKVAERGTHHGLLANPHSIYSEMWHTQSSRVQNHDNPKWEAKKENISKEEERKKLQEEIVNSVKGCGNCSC
UniProt P24752: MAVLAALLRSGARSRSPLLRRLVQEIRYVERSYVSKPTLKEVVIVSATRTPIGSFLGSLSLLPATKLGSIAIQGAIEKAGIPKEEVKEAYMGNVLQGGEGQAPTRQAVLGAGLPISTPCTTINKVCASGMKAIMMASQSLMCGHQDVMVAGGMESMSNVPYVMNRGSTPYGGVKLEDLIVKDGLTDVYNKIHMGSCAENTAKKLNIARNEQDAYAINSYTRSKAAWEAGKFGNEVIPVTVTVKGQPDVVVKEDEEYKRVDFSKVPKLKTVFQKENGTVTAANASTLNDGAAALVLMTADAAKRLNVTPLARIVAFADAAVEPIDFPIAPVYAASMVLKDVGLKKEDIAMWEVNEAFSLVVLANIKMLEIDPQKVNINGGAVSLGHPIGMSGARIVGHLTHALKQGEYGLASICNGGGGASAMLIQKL
UniProt Q9NZ32, whole entry, looked up: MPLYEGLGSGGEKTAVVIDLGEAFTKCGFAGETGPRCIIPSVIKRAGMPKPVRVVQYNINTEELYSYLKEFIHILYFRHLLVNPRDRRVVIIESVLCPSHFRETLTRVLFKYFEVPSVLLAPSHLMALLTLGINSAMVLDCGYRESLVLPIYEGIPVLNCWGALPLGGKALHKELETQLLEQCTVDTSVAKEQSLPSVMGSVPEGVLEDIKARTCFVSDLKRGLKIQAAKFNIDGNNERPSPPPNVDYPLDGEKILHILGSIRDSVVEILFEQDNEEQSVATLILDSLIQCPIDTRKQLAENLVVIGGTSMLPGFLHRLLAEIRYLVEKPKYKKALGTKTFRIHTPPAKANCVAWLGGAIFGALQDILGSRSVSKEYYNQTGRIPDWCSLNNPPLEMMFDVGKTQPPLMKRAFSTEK
UniProt Q9NR19, whole entry, looked up: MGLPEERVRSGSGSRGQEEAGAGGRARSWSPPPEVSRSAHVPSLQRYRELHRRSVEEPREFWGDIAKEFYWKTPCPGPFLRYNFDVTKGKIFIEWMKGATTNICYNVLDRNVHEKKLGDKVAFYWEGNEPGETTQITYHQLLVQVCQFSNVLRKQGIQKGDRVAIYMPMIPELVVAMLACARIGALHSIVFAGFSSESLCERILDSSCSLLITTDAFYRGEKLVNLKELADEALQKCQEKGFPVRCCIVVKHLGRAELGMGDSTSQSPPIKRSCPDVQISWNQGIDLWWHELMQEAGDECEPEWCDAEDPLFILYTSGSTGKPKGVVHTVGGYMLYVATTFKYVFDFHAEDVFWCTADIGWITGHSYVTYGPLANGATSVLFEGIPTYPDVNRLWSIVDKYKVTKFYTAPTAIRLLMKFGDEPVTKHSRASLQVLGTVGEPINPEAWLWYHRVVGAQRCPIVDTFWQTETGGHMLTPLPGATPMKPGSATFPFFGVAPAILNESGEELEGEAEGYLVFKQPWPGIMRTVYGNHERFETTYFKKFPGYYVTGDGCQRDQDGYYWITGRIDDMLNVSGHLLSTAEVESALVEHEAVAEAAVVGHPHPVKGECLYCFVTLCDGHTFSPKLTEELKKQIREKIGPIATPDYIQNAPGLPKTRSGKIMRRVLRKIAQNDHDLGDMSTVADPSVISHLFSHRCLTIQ
UniProt Q9BWD1: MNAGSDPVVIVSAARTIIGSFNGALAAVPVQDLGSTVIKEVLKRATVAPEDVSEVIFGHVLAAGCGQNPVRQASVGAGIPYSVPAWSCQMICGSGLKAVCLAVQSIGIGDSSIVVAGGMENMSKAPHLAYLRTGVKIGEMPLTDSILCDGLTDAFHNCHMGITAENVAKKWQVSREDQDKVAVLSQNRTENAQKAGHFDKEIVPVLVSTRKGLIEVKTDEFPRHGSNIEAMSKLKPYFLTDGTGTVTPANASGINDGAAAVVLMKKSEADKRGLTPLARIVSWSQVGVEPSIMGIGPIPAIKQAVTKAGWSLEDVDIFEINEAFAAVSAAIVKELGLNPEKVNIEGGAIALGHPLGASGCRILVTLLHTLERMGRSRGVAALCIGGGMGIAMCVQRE
UniProt Q9NUJ1: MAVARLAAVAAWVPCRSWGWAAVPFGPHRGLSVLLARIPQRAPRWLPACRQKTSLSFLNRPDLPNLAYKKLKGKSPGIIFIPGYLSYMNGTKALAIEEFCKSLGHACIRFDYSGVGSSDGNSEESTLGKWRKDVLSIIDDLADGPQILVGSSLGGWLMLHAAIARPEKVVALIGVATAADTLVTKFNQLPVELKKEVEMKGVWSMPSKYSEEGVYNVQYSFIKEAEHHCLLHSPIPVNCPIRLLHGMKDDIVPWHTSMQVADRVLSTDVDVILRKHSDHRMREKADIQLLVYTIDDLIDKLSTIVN
UniProt Q9Y305: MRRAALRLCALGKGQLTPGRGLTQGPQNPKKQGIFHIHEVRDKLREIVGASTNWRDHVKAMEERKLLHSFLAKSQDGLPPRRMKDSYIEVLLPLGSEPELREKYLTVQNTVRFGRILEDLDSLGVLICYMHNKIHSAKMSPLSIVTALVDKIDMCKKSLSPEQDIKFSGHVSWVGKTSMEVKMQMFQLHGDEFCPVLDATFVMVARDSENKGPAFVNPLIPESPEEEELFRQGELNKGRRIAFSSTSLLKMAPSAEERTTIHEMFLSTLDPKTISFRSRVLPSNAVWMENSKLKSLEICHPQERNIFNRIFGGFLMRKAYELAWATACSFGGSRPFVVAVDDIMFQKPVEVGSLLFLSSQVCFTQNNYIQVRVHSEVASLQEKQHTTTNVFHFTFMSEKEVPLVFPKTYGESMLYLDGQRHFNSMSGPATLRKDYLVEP

This is one part of the list.

Compound in the first test: CN(CCOC1=CC=C(C=C1)C[C@H]2C(=O)NC(=O)S2)C3=CC=CC=N3 (racemic) [rosiglitazone]
The test is described as follows: log2 fold change, soluble protein after heating vs DMSO (PISA); higher = thermal stabilisation; K562 cells, 10 uM, 30 min; active = over 0.2 and 3.5 SD of the protein, either way, in both replicates (recomputed). In short, it runs like this:
(§1)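 K562 cells at 2×10^6 cells/mL were exposed to 10 μM compound for 30 min, then aliquots were heated for 3 min across 48°C-58°C, pooled, and extracted in PBS containing 0.5% NP-40 at 4°C. The supernatant after 21,000xg for 90 min was taken as soluble protein and measured by TMTpro 16plex LC-MS/MS with channel sums equalised. Thermal stability is reported relative to control samples, with values from duplicates. Fold changes are given on a log2 scale.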
AAAS (UniProt Q9NRG9): the log2 fold change was inactive: -0.008.
Same read-out and setting: under ACAD8 (UniProt Q9UKU7) stands inactive: 0.026.
As to ACTA1 (UniProt P68133), the log2 fold change was inactive: -0.01.
On to AASDHPPT (UniProt Q9NRN7), for which the log2 fold change was inactive: 0.018.
Regarding ABHD13 (UniProt Q7L211), the log2 fold change was inactive: 0.016.
On the same count and under the same terms, under ABCF1 (UniProt Q8NE71) stands inactive: -0.047; under ACTR1A (UniProt P61163), inactive: -0.017; under ACOT7 isoform 7 (UniProt O00154), inactive: -0.015.
In the case of ADA (UniProt P00813), the log2 fold change is inactive: 0.029.
Still for that read-out and setting: with ABHD17B (UniProt Q5VST6) the figure was inactive: -0.013; with ADAT3 (UniProt Q96EY9), inactive: 0.04; with ACTL8 (UniProt Q9H568), inactive: 0.117.
Same read-out and setting: under ACTB, A0A2R8Y793 stands inactive: -0.02; under ACTR6 (UniProt Q9GZN1), inactive: 0.152; under ACOT13 (UniProt Q9NPJ3), inactive: -0.024.
For the target ACADS (UniProt P16219), the log2 fold change is inactive: 0.016.
Still for that read-out and setting: with ACTL6A (UniProt O96019) the figure was inactive: 0.024; with ABCB7 isoform 2 (UniProt O75027), inactive: 0.056.
With ABCE1 (UniProt P61221), the log2 fold change is inactive: -0.001.
The same measure, in the same setting: with ACLY (UniProt P53396) the figure was inactive: -0.057; with ABLIM1 (UniProt O14639), inactive: -0.057.
The same measure, in the same setting: with ACOX1 isoform 2 (UniProt Q15067) the figure was inactive: 0.01; with ACAT1 (UniProt P24752), inactive: -0.01; with ABCE1 (UniProt H0Y990), inactive: 0.076.
Consider ACBD3 (UniProt Q9H3P7), for which the log2 fold change was inactive: 0.029.
In the case of ACTR3 (UniProt P61158), the log2 fold change is inactive: -0.052.
On the same count and under the same terms, with A2M (UniProt P01023) the figure was inactive: -0.007; with ACTR10 (UniProt Q9NZ32), inactive: -0.034; with ADAR isoform 4 (UniProt P55265), inactive: 0.294.
Still for that read-out and setting: with ACAA1 (UniProt P09110) the figure was inactive: -0.01.
Consider ACYP1 (UniProt P07311), for which the log2 fold change is inactive: 0.034.
Same read-out and setting: under ABCC4 (UniProt O15439) stands inactive: -0.007; under ACSS2 isoform 2 (UniProt Q9NR19), inactive: 0.017.
Same read-out and setting: with ACAT2 (UniProt Q9BWD1) the figure was inactive: 0.008.
Same read-out and setting: with ABHD10 (UniProt Q9NUJ1) the figure was inactive: 0.012.
For ABI1 (UniProt Q8IZP0), the log2 fold change was inactive: 0.01.
As for ACOT9 isoform 4 (UniProt Q9Y305), the log2 fold change was inactive: -0.006.

Compound in the next test: CN1C2=C(C3=C1C(=O)N(N=C3)CC4=CC(=CC=C4)N)SC(=C2)S(=O)C
The test is described as above. In short, it runs like this:
as §1
In the case of AAAS (UniProt Q9NRG9), the log2 fold change was inactive: -0.086.
On the same count and under the same terms, under ACAD8 (UniProt Q9UKU7) stands inactive: -0.091; under ACTA1 (UniProt P68133), inactive: -0.05.
The same measure, in the same setting: with AASDHPPT (UniProt Q9NRN7) the figure was inactive: -0.088; with ABHD13 (UniProt Q7L211), inactive: -0.039; with ABCF1 (UniProt Q8NE71), inactive: 0.08.
As for ACTR1A (UniProt P61163), the log2 fold change was inactive: -0.047.
The same measure, in the same setting: under ACOT7 isoform 7 (UniProt O00154) stands inactive: -0.058.
For ADA (UniProt P00813), the log2 fold change was inactive: 0.023.
With ABHD17B (UniProt Q5VST6), the log2 fold change is inactive: -0.003.
ADAT3 (UniProt Q96EY9): the log2 fold change is inactive: -0.147.
The same measure, in the same setting: with ACTL8 (UniProt Q9H568) the figure was inactive: -0.013; with ACTB, A0A2R8Y793, inactive: -0.067; with ACTR6 (UniProt Q9GZN1), inactive: 0.042.
Turning to ACOT13 (UniProt Q9NPJ3), the log2 fold change is inactive: -0.078.
With ACADS (UniProt P16219), the log2 fold change is inactive: -0.063.
Consider ACTL6A (UniProt O96019), for which the log2 fold change was inactive: -0.042.
On the same count and under the same terms, with ABCB7 isoform 2 (UniProt O75027) the figure was inactive: -0.044; with ABCE1 (UniProt P61221), inactive: -0.018.
Still for that read-out and setting: with ACLY (UniProt P53396) the figure was inactive: -0.064; with ABLIM1 (UniProt O14639), inactive: 0.449.
In the case of ACOX1 isoform 2 (UniProt Q15067), the log2 fold change was inactive: -0.056.
As to ACAT1 (UniProt P24752), the log2 fold change is inactive: -0.022.
Still for that read-out and setting: with ABCE1 (UniProt H0Y990) the figure was inactive: -0.034; with ACBD3 (UniProt Q9H3P7), inactive: -0.025.
With ACTR3 (UniProt P61158), the log2 fold change is inactive: -0.029.
On the same count and under the same terms, with A2M (UniProt P01023) the figure was inactive: 0.356; with ACTR10 (UniProt Q9NZ32), inactive: -0.052; with ADAR isoform 4 (UniProt P55265), inactive: 0.094.
Still for that read-out and setting: under ACAA1 (UniProt P09110) stands inactive: -0.083; under ACYP1 (UniProt P07311), inactive: -0.05.
The same measure, in the same setting: under ABCC4 (UniProt O15439) stands inactive: -0.074; under ACSS2 isoform 2 (UniProt Q9NR19), inactive: -0.016.
Turning to ACAT2 (UniProt Q9BWD1), the log2 fold change was inactive: -0.041.
As for ABHD10 (UniProt Q9NUJ1), the log2 fold change is inactive: -0.005.
The same measure, in the same setting: with ABI1 (UniProt Q8IZP0) the figure was inactive: -0.091; with ACOT9 isoform 4 (UniProt Q9Y305), inactive: 0.029.
